Results are given in words; binding and its absence hold for the method and conditions named. In cells and extracts the contact can be indirect. Here binding means that the protein was enriched with, or labelled near, the bait; the list need not be complete.
Target: Caspar (Casp), Drosophila orthologue of human Fas-associated factor-1 (FAF1) (D. melanogaster (endogenous in 0-3 hr embryos))
Assay: affinity purification with mass spectrometry; immunoprecipitation with rabbit anti-Casp antibody (cross-linked to Protein A SureBeads with DMP) from 0-3 hr embryonic lysates in Co-IP Lysis Buffer (20 mM Tris pH 8.0, 137 mM NaCl, 1% IGEPAL, 2 mM EDTA), 4 °C; normal rabbit IgG IP as control; in-gel trypsin digestion, LC-MS/MS

Row | binding | Binder
1 | binds | vesicle-associated membrane protein-associated protein B (VAPB/VAP33A) (protein, UniProt Q9W4N8 1-269) MSKSLFDLPLTIEPEHELRFVGPFTRPVVTIMTLRNNSALPLVFKIKTTAPKRYCVRPNIGKIIPFRSTQVEICLQPFVYDQQEKNKHKFMVQSVLAPMDADLSDLNKLWKDLEPEQLMDAKLKCVFEMPTAEANAENTSGGGAVGGGTGAAGGGSAGANTSSASAEALESKPKLSSEDKFKPSNLLETSESLDLLSGEIKALRECNIELRRENLHLKDQITRFRSSPAVKQVNEPYAPVLAEKQIPVFYIAVAIAAAIVSLLLGKFFL
2 | binds | Maternal expression at 31B (Me31B) (protein, UniProt P23128 1-459) MMTEKLNSGHTNLTSKGIINDLQIAGNTSDDMGWKSKLKLPPKDNRFKTTDVTDTRGNEFEEFCLKRELLMGIFEKGWERPSPIQEAAIPIALSGKDVLARAKNGTGKTGAYCIPVLEQIDPTKDYIQALVMVPTRELALQTSQICIELAKHLDIRVMVTTGGTILKDDILRIYQKVQLIIATPGRILDLMDKKVADMSHCRILVLDEADKLLSLDFQGMLDHVILKLPKDPQILLFSATFPLTVKNFMEKHLREPYEINLMEELTLKGVTQYYAFVQERQKVHCLNTLFSKLQINQSIIFCNSTQRVELLAKKITELGYCCYYIHAKMAQAHRNRVFHDFRQGLCRNLVCSDLFTRGIDVQAVNVVINFDFPRMAETYLHRIGRSGRFGHLGIAINLITYEDRFDLHRIEKELGTEIKPIPKVIDPALYVANVGASVGDTCNNSDLNNSANEEGNVSK

Source: PMC11643641
